Results published in the supplement of paper PMC10849652.
The list shows a part of the results.

Amino acid sequences for entries named in this document (tags omitted). A change or cut given only in a name is not applied to a line headed by its entry.
UniProt P0C0S5, whole entry, looked up: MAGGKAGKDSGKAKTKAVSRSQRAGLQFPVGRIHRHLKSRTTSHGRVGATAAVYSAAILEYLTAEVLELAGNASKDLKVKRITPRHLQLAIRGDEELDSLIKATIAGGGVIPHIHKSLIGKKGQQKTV
UniProt P29083: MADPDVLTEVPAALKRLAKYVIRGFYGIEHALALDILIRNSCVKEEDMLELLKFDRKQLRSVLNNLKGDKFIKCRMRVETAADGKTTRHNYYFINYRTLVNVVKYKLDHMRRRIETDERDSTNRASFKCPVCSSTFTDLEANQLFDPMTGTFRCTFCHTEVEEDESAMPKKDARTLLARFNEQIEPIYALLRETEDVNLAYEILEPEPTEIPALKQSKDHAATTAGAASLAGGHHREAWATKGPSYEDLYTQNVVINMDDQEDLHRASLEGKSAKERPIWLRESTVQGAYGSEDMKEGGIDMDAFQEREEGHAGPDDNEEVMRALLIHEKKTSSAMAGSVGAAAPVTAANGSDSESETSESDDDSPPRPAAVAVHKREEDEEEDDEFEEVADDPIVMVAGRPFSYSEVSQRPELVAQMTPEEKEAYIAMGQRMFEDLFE
UniProt P55084: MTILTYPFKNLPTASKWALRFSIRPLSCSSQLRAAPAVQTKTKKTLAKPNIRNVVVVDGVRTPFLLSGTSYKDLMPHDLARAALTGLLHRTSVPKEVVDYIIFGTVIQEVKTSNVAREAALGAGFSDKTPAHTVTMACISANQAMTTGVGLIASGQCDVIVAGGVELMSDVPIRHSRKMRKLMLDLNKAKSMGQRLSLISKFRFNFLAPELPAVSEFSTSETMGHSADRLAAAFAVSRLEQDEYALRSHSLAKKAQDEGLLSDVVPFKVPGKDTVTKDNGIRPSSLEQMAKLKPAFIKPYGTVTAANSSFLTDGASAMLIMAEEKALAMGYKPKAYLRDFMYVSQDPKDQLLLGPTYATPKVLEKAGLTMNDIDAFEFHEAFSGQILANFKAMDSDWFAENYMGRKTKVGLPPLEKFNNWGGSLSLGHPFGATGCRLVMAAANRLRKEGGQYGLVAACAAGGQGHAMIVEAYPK
UniProt P09211: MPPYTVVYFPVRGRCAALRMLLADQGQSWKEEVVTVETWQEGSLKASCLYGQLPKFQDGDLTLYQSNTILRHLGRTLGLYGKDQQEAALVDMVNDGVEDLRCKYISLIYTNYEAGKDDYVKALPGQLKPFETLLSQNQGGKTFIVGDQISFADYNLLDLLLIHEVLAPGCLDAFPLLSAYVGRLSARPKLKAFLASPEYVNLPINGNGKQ
UniProt P40939: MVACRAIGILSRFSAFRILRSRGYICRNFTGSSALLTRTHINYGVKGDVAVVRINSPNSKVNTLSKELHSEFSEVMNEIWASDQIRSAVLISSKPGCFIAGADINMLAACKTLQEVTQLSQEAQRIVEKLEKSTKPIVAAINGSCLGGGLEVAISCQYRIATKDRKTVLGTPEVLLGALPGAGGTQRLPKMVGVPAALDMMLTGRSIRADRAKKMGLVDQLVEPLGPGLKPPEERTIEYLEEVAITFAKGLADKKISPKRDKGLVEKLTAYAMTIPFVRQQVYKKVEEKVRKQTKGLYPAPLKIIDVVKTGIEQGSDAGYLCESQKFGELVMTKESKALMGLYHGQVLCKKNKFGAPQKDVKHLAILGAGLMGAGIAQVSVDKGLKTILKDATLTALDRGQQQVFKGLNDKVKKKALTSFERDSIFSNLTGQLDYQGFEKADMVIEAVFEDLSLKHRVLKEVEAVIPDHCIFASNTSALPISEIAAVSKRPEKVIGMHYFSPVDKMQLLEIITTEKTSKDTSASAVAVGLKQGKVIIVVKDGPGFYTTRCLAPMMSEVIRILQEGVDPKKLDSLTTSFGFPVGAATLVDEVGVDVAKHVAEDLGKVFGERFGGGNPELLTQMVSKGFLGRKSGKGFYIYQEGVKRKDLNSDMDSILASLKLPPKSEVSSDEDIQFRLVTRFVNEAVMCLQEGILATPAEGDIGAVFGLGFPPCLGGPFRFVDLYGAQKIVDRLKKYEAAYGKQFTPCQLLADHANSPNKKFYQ
UniProt Q9BX10: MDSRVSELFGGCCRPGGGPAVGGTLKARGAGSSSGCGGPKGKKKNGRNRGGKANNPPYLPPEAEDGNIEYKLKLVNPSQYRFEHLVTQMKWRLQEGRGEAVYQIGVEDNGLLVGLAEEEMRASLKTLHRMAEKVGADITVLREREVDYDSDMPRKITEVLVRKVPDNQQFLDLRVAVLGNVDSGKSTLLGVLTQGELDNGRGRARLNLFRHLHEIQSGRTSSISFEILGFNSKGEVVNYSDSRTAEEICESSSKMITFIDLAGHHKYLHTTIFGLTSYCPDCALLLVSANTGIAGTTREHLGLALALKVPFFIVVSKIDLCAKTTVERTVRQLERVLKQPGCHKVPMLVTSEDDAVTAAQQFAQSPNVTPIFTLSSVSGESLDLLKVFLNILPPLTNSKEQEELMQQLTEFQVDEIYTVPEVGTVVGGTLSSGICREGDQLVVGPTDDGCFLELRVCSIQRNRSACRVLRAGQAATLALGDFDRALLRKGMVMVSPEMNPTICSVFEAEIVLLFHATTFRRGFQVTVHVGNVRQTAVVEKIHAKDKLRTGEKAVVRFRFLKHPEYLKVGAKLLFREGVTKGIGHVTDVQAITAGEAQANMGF
UniProt P09105: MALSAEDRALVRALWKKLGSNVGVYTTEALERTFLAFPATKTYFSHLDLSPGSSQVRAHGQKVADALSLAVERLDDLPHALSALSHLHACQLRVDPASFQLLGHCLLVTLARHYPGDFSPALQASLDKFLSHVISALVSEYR
UniProt Q5T447: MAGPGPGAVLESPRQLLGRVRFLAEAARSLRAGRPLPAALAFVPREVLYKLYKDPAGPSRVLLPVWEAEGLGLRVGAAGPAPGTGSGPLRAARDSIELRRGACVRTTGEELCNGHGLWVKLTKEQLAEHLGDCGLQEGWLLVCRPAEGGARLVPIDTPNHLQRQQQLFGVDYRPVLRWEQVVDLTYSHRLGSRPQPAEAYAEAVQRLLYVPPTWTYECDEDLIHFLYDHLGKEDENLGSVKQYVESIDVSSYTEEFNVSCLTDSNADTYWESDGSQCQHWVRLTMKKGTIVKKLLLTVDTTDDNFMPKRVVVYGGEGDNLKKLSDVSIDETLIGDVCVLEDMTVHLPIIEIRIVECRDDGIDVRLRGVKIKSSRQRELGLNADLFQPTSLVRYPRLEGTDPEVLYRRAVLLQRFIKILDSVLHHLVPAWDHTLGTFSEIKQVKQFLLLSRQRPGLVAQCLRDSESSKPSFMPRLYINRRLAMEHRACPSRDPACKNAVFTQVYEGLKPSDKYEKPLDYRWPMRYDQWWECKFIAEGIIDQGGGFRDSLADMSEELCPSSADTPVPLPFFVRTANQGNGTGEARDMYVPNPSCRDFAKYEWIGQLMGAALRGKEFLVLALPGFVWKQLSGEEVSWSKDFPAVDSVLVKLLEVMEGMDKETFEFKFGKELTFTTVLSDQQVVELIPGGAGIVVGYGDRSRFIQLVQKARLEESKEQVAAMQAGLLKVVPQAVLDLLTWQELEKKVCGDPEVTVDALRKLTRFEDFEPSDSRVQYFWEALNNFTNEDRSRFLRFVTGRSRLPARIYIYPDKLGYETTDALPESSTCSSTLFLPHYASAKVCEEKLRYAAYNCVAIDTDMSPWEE
UniProt Q9H0R4: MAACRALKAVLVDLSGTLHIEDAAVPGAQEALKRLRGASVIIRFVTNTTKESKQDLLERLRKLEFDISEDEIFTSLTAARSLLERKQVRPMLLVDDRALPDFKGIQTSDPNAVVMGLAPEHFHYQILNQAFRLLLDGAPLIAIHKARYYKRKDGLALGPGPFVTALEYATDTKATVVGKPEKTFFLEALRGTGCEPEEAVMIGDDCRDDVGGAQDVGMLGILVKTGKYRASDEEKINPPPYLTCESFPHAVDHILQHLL

Experiments:
Experiment in all cases: log2 fold change, soluble protein after heating vs DMSO (PISA); higher = thermal stabilisation; K562 cells, 10 uM, 30 min; active = over 0.2 and 3.5 SD of the protein, either way, in both replicates (recomputed)
[1] = compound: C1=CC=C(C=C1)[C@H](COC2=CC3=C(C=C2)NC(=O)N3)NC(=O)C4=CC=CN(C4=O)CC5=CC(=C(C=C5)F)F
In short: (§1)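 For each measurement, 10 μM compound was applied for 30 min to K562 cells at 2×10^6 cells/mL. Aliquots were heated for 3 min across 48°C-58°C, pooled, and extracted in PBS with 0.5% NP-40 at 4°C; the supernatant after 21,000xg for 90 min was soluble protein. This was quantified by TMTpro 16plex LC-MS/MS with channel sums equalised, and thermal stability was reported relative to control samples from duplicates, on a log2 fold-change scale.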

[2] = compound: CC1=C(SC2=C1C(=N[C@H](C3=NN=C(N32)C)CC(=O)N)C4=CC=C(C=C4)Cl)C
In short: as §1

[3] = compound: CC1=C2C(=CC=C1)N=C(N(C2=O)C3=CC=CC=C3C)CN4C=NC5=C(N=CN=C54)N
In short: as §1

[4] = compound: Cc1sc2c(c1C)C(c1ccc(Cl)cc1)=N[C@@H](CC(=O)OC(C)(C)C)c1nnc(C)n1-2
In short: as §1

[5] = compound: c1ccc([C@@H]2C[C@H]2NC2CCNCC2)cc1
In short: as §1

Measured: log2 fold change

H2AZ1 (UniProt P0C0S5)
inactive: [1] 0.12 | [2] -0.153 | [3] -0.247 | [4] -0.021 | [5] 0.123

GTF2E1 (UniProt P29083)
inactive: [1] -0.086 | [2] 0.089 | [3] 0.136 | [4] -0.052 | [5] 0.034

HADHB (UniProt P55084)
inactive: [1] -0.238 | [2] 0.235 | [3] 0.2 | [4] 0.363 | [5] -0.085

Copied from the results shown (2 entries):
GTF2E1 (UniProt P29083)
inactive: [1] -0.086 | [2] 0.089 | [3] 0.136 | [4] -0.052 | [5] 0.034

HADHB (UniProt P55084)
inactive: [1] -0.238 | [2] 0.235 | [3] 0.2 | [4] 0.363 | [5] -0.085

Further entries

GSTP1 (UniProt P09211)
inactive: [1] -0.013 | [2] 0.039 | [3] 0.005 | [4] -0.013 | [5] -0.016

HADHA (UniProt P40939)
inactive: [1] -0.218 | [2] 0.254 | [3] 0.214 | [4] 0.256 | [5] -0.051

GTPBP2 (UniProt Q9BX10)
inactive: [1] -0.023 | [2] 0.019 | [3] 0.094 | [4] 0.088 | [5] -0.041

HBQ1 (UniProt P09105)
inactive: [1] 0.023 | [2] 0.135 | [3] 0.092 | [4] -0.147 | [5] -0.037

HECTD3 (UniProt Q5T447)
inactive: [1] -0.015 | [2] 0.009 | [3] 0 | [4] 0.102 | [5] -0.044

HDHD2 (UniProt Q9H0R4)
inactive: [1] -0.044 | [2] 0.006 | [3] -0.003 | [4] 0.03 | [5] -0.031
